Data: paper PMC7438871
Results are given in words; binding and its absence hold for the method and conditions named. Binding seen in cells or lysates may run through a third protein. Some binding calls cover weakened binding; strength is not graded here. Sequences can lack the tags named with a protein.

Sequences of proteins named here, by UniProt entry; tags and fusion partners are left off.
UniProt P61586: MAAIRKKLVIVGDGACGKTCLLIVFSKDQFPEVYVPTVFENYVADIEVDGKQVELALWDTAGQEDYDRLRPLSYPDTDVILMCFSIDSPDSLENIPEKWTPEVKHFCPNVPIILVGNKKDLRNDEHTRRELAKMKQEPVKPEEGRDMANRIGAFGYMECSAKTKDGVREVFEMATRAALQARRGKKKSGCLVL

Biological target: T1, GST-RhoGDI2 Y130E (human) (UniProt P52566)
T1 sequence: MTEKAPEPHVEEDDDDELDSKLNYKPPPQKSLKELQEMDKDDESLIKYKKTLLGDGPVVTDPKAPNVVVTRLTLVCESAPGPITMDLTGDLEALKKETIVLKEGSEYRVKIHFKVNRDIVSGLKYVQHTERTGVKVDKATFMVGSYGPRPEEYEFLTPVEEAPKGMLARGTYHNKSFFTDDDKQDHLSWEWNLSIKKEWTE
Experiment: pull-down; 25 ug GST-RhoGDI2 (WT or mutant) bound to glutathione Sepharose 4B beads, incubated with lysate of starved JURKAT or CCRF-CEM cells (4 x 10^7 cells) at 4 C for 4 h; 25 mM Tris pH 7.5, 150 mM NaCl, 1% Nonidet P-40, 5% glycerol, 60 mM MgCl2; Western blot with RhoA or RhoC antibody; only the target purified

RhoA (from UniProt P61586 1-193)
binding: binds
